Laboratory results: PubChem BioAssay AID1259254 (NCATS, 2017)
In all, the deposit lists about 59,000 reagents; shown is a part drawn at random. About 1,550 of all reagents (2.6%) were called active. 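G2 share is only a proxy for re-replication; each gene was hit by three separate siRNAs, and active genes were retested.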 The numbers tell different reagents against one gene apart. Further read-outs or replicates are left out here. Reagent sequences are not shown. The record does not give: the amount of reagent.

- Assay: 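Finding genes that stop cells copying their DNA twice in one cycle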 (primary screen)
- Cells: human HCT116 colorectal cancer cells
- Reagents: single siRNA against human genes
- Time to read-out: 3 days
- Detection: 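Nuclei stained with Hoechst and imaged; cell-cycle phase assigned by DNA content; G2 share scaled per plate, non-targeting siRNA 0%, GMNN siRNA 100%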
- Scale: G2 robust z-score and G2 cells, % of GMNN control: higher = more G2 cells, more excess DNA replication
- Active means: 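An siRNA counts as active if its G2 robust z-score lies at least 5 MADs above the screen median; here such calls match roughly 38% of GMNN control or more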

TESK2 #1
- G2 robust z-score: 0.0439
- G2 cells, % of GMNN control: 3.28
- outcome: inactive

TESK2 #2
- G2 robust z-score: -1.4
- G2 cells, % of GMNN control: -6.91
- outcome: inactive

TESK2 #3
- G2 robust z-score: 0.769
- G2 cells, % of GMNN control: 8.38
- outcome: inactive

ZNF672 #1
- G2 robust z-score: -0.703
- G2 cells, % of GMNN control: -1.98
- outcome: inactive

ZNF672 #2
- G2 robust z-score: -1.37
- G2 cells, % of GMNN control: -6.69
- outcome: inactive

ZNF672 #3
- G2 robust z-score: -0.129
- G2 cells, % of GMNN control: 2.06
- outcome: inactive

MAGI2 #1
- G2 robust z-score: 4.69
- G2 cells, % of GMNN control: 35.9
- outcome: inactive

MAGI2 #2
- G2 robust z-score: -1.24
- G2 cells, % of GMNN control: -5.73
- outcome: inactive

MAGI2 #3
- G2 robust z-score: 0.76
- G2 cells, % of GMNN control: 8.31
- outcome: inactive

BAAT #1
- G2 robust z-score: 0.434
- G2 cells, % of GMNN control: 6.02
- outcome: inactive

BAAT #2
- G2 robust z-score: 0.0152
- G2 cells, % of GMNN control: 3.07
- outcome: inactive

BAAT #3
- G2 robust z-score: 1.69
- G2 cells, % of GMNN control: 14.8
- outcome: inactive

In a second layout: results already given
{"gene":"ZNF672","reagent no.":2,"G2 robust z-score":-1.37,"G2 cells, % of GMNN control":-6.69,"outcome":"inactive"}
{"gene":"ZNF672","reagent no.":3,"G2 robust z-score":-0.129,"G2 cells, % of GMNN control":2.06,"outcome":"inactive"}
